Measurements taken from article PMC7819943, “Rice protein-binding microarrays: a tool to detect cis-acting elements near promoter regions in rice”.
This is one part of the list.

What follows are sequences tested against T1, OsSMF1 (Oryza sativa, UniProt Q6ZLB0 1-436) (assay: protein-binding microarray (RPBM); PBS, 2% BSA, 51.3 ng/ul salmon testes DNA, 50 uM zinc acetate, 200 nM TF, 25 C, 1 h; high values mean tight binding). Settings: protein: recombinant; tags: N-terminal polyhistidine and DsRed monomer fusion (pET32a); chain copies: 2; label: CyDye5-dUTP incorporated in the synthesized complementary strand; 3' TTTTT single-stranded linker to array surface; dsDNA, one strand shown.
T1 sequence: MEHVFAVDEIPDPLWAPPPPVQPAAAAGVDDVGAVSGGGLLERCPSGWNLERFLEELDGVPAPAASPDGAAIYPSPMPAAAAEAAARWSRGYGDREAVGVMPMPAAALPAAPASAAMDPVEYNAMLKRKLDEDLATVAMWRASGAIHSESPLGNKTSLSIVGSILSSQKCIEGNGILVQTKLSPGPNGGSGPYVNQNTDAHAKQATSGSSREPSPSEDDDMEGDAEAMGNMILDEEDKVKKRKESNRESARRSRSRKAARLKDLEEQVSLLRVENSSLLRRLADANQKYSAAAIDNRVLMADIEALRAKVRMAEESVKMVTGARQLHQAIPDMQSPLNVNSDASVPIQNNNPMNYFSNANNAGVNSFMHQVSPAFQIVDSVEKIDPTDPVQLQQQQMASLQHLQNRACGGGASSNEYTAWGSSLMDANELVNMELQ
Method in brief: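 Polyhistidine-tagged DsRed fusions of transcription factors, joined at the N-terminus, were expressed in E. coli BL21-CodonPlus and isolated on Ni–NTA. They were incubated at 200 nM for 1 h at 25 °C on a custom Agilent array, double-stranded and BSA-blocked, in PBS with 2% BSA, salmon testes DNA and 50 µM zinc acetate. The binding signal is per-feature fluorescence intensity (arbitrary units) read on an Axon 4000B scanner after washing.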
“CCCACACATCGCTGTGTCTCTGGACGCCATGACAAAACAACGGAGTCACCTAGTGCAG” was tested, and the binding signal was 3540 fluorescence intensity (a.u.). In the case of “TCCTGTTGAACGACGGCGCCAGCCACTCTGGCGCCCCAAACGGAGTCACCTAGTGCAG”, the binding signal is reported as 3270 fluorescence intensity (a.u.). For “TCTCGTTTGCACTGATTTTGTAAGTTGGGGTCATGTTGTACGGAGTCACCTAGTGCAG”, the binding signal was 4050 fluorescence intensity (a.u.). With “CTGGCACGTAAGCGTTACCGTGGCATGCCACGTCATCTCACGGAGTCACCTAGTGCAG” the binding signal was 39600 fluorescence intensity (a.u.). “CCCTTGTCCTTTTGTCGCCGTCGACGAGGACGTGCATACTCGGAGTCACCTAGTGCAG” was tested, and the binding signal was 3520 fluorescence intensity (a.u.). With “TGATGGGGTTCGGGCTGCTGACGCGCACCATCTCGTCGGGCGGAGTCACCTAGTGCAG” the binding signal was 7610 fluorescence intensity (a.u.). For “TCATTAGCACATGTGGGTTACTGTAGCACTTATGGCTAATCGGAGTCACCTAGTGCAG”, the binding signal was 11400 fluorescence intensity (a.u.). For “TGTGATCTTCTGTGACGAATTCCTCGTGACGACGGTGCTACGGAGTCACCTAGTGCAG”, the binding signal was 4220 fluorescence intensity (a.u.). In the case of “TTTGTTGTGATATGATAGGATTAGTTTTCATCTCTATCTTCGGAGTCACCTAGTGCAG”, the binding signal is reported as 3290 fluorescence intensity (a.u.). For “AAATGTTATGAGTACGATGACACATTAAAACACAGTCATTCGGAGTCACCTAGTGCAG”, the binding signal was 4650 fluorescence intensity (a.u.). In the case of “ACAAACCAACCAACCCTCCTCGCCGCGGCCGCCGCCACCGCGGAGTCACCTAGTGCAG”, the binding signal is reported as 3400 fluorescence intensity (a.u.). For “TTCTGATTACGCGGCGAAACCGCTCGCGCCATGGCGGTTGCGGAGTCACCTAGTGCAG”, the binding signal was 4380 fluorescence intensity (a.u.). With “GTGTCTTGTGGGCATCGCTTTCATCACTGCCCCGTCACGTCGGAGTCACCTAGTGCAG” the binding signal was 8640 fluorescence intensity (a.u.). In the case of “CGCCCAGATCGGCGTGGCGGACGGAAACCCTAACCCTATGCGGAGTCACCTAGTGCAG”, the binding signal is reported as 3670 fluorescence intensity (a.u.). “TGGAGATCTCACGCGACCATTTGCCGGTGAGGTCGGCTGCCGGAGTCACCTAGTGCAG” was tested, and the binding signal was 3800 fluorescence intensity (a.u.). “ATGGCCCATATTGCCTGGGAAGGTGACACTATCACAGCGGCGGAGTCACCTAGTGCAG” was tested, and the binding signal was 4830 fluorescence intensity (a.u.). With “ACAAGATGGTCTATCATTTTCGCACATGACACATGTATACCGGAGTCACCTAGTGCAG” the binding signal was 3820 fluorescence intensity (a.u.). With “TTGATGTCTTCTTGTTGATTCATGATGTGAGCAATGGTCGCGGAGTCACCTAGTGCAG” the binding signal was 4000 fluorescence intensity (a.u.). For “ATACTAAGCAAATACATGATGATGTGGCTATATGTGAAGGCGGAGTCACCTAGTGCAG”, the binding signal was 5730 fluorescence intensity (a.u.). With “CGTGCCACCATCGGAGAGCCACGCTGGATCCACGTGCCGCCGGAGTCACCTAGTGCAG” the binding signal was 7650 fluorescence intensity (a.u.). For “TAGCCATAATCTGCTGTTGCGTCGGCCTCGTCATAGCCGCCGGAGTCACCTAGTGCAG”, the binding signal was 5270 fluorescence intensity (a.u.). In the case of “TAAAGTTTGACATGCAAAGATGCTACATCATCATCCACGGCGGAGTCACCTAGTGCAG”, the binding signal is reported as 5040 fluorescence intensity (a.u.). “GATGCGATCATGCCAAATCTATCCAACGGCTGGTGTATCTCGGAGTCACCTAGTGCAG” was tested, and the binding signal was 3300 fluorescence intensity (a.u.). In the case of “TTAAGCTGCGGCCTGCGGCTTTGACTCGTCCCAATAGGCGCGGAGTCACCTAGTGCAG”, the binding signal is reported as 25800 fluorescence intensity (a.u.). In the case of “GAGAGCACCGGCGCGGGGTCGGGGAGGGAGAGGTGCGCGACGGAGTCACCTAGTGCAG”, the binding signal is reported as 3380 fluorescence intensity (a.u.). “AGGGCTGCGTCAGGGCAGGCGAAGGGTTTGGAATCTAAGGCGGAGTCACCTAGTGCAG” was tested, and the binding signal was 3830 fluorescence intensity (a.u.). “TTACCAAACCAATACAATCTGTACAATCTTAACTTATGAACGGAGTCACCTAGTGCAG” was tested, and the binding signal was 3280 fluorescence intensity (a.u.). For “CTGATCCACCACAGCACATTGGCCTCTCATGAGATCAGCTCGGAGTCACCTAGTGCAG”, the binding signal was 3600 fluorescence intensity (a.u.). “ATACGGCACCATTTACGTGTATATGTGTCGTACATGCATACGGAGTCACCTAGTGCAG” was tested, and the binding signal was 3470 fluorescence intensity (a.u.). “CCGGTAGAGGCCGGGCCAGCCTGTCTGACGTCACACTAGCCGGAGTCACCTAGTGCAG” was tested, and the binding signal was 17800 fluorescence intensity (a.u.). In the case of “TGAGATTGGAGTGTACCTATCACTGCAACCAACTTTGCTACGGAGTCACCTAGTGCAG”, the binding signal is reported as 3350 fluorescence intensity (a.u.). “CCAACGTCAGAGGGGAGCTCCCCGTCAGGTTCCTCCAGGTCGGAGTCACCTAGTGCAG” was tested, and the binding signal was 4960 fluorescence intensity (a.u.). With “CGACGAGTTCCGGCCGGACCGGTTCGCGAACGGCGTGGCGCGGAGTCACCTAGTGCAG” the binding signal was 3960 fluorescence intensity (a.u.). In the case of “TTATTTTAGTGCCACGTAAGCGACACGTCGATGCCACATGCGGAGTCACCTAGTGCAG”, the binding signal is reported as 23000 fluorescence intensity (a.u.). With “CTATATTGTATGTGCGCACGTGTATATAAACATCTGTGTTCGGAGTCACCTAGTGCAG” the binding signal was 9100 fluorescence intensity (a.u.). “TGTAGGTATAAGAGTGAGTTGGTGAATTATAGGGTAGACTCGGAGTCACCTAGTGCAG” was tested, and the binding signal was 7410 fluorescence intensity (a.u.). For “AGAAATAAAGAGTGAGGCCGGGGTGAAGGCCACGTGCGTACGGAGTCACCTAGTGCAG”, the binding signal was 3630 fluorescence intensity (a.u.). For “GTCGGTCCTTGAACTTGAAGCGTGGTGTCGCTTAGATCCACGGAGTCACCTAGTGCAG”, the binding signal was 4620 fluorescence intensity (a.u.). “TATATACTCTCTTCGTTTCAAAATGTTTGACGCCGTTAACCGGAGTCACCTAGTGCAG” was tested, and the binding signal was 3670 fluorescence intensity (a.u.). For “ATTTAAATGACGGTTTCGTCCTACGTGGTACATTGACCCGCGGAGTCACCTAGTGCAG”, the binding signal was 10600 fluorescence intensity (a.u.). “TTCTTTGGTCCAACGTAGTGACGCTTGCAGTGTTTACAGTCGGAGTCACCTAGTGCAG” was tested, and the binding signal was 4410 fluorescence intensity (a.u.). With “CCATCCTGCATCCTCCCATGACCACCCGCCACGTCTCGCCCGGAGTCACCTAGTGCAG” the binding signal was 7730 fluorescence intensity (a.u.).
